Data source: PubChem BioAssay AID1259308 (NCATS, 2017)
Shown is a random part of about 59,000 reagents tested. Over the whole deposit, about 1,510 (2.6%) got an active call. 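Calls use total luciferase alone and ignore viability, so some active siRNAs may act by altering cell number.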 The numbers tell different reagents against one gene apart. Further read-outs or replicates are left out here.

Assay: 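Knock-downs that increase output of a recombinant reporter protein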 (primary screen)
Cell system: human HEK293 embryonic kidney cells stably expressing firefly luciferase (HEK-CMV-Luc2-Hygro)
Reagents: single siRNA against human genes, 0.8 pmol siRNA per well
Timing: 72 h
Measurement: 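Luciferase light (ONE-Glo) measured on one replicate plate set and viability (CellTiter-Glo) on the other, scaled to a negative control siRNA, with robust z-scores and luciferase per cell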
Scale: total luciferase, z-score and total luciferase, % of control: higher = more reporter protein produced
Hit rule: 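Active when the median/MAD z-score for overall luciferase is greater than 3; a gene was taken forward for validation with new siRNAs if at least two of its three siRNAs passed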
Calls: active = raised luciferase; inactive = no rise

target gene	reagent	total luciferase, z-score	total luciferase, % of control	outcome
MSC	1	0.378	89.4	inactive
MSC	2	1.05	103	inactive
MSC	3	-0.436	73.2	inactive
CCNG2	1	-0.362	74.7	inactive
CCNG2	2	0.408	90	inactive
CCNG2	3	-2.09	40.4	inactive
KCNQ1	1	1.07	103	inactive
KCNQ1	2	0.203	85.9	inactive
KCNQ1	3	0.219	86.2	inactive
SYCE1	1	1.17	105	inactive
SYCE1	2	-0.184	78.2	inactive
SYCE1	3	-0.0293	81.3	inactive
UGT2B10	1	-0.601	69.9	inactive
UGT2B10	2	-0.0253	81.4	inactive
UGT2B10	3	1.16	105	inactive
ZNF532	1	-0.995	62.1	inactive
ZNF532	2	0.193	85.7	inactive
ZNF532	3	-1.49	52.3	inactive
DYM	1	-1.35	55.1	inactive
DYM	2	0.749	96.8	inactive
DYM	3	0.126	84.4	inactive
NR1D1	1	-0.969	62.6	inactive
NR1D1	2	1.07	103	inactive
NR1D1	3	-0.637	69.2	inactive
OR52E2	1	1.62	114	inactive
OR52E2	2	1.79	118	inactive
OR52E2	3	-0.59	70.1	inactive
KIF20B	1	0.234	86.5	inactive
KIF20B	2	-0.153	78.8	inactive
KIF20B	3	3.85	159	active
GLYATL3	1	-2.23	37.6	inactive
GLYATL3	2	-0.391	74.1	inactive
GLYATL3	3	-0.922	63.5	inactive
NSUN3	1	0.622	94.3	inactive
NSUN3	2	-0.796	66.1	inactive
NSUN3	3	0.983	101	inactive
PEAR1	1	0.915	100	inactive
PEAR1	2	1.16	105	inactive
PEAR1	3	-0.502	71.9	inactive

The list goes on; the last 5 above are carried over.
target gene	reagent	total luciferase, z-score	total luciferase, % of control	outcome
NSUN3	2	-0.796	66.1	inactive
NSUN3	3	0.983	101	inactive
PEAR1	1	0.915	100	inactive
PEAR1	2	1.16	105	inactive
PEAR1	3	-0.502	71.9	inactive
NBPF11	1	-0.768	66.6	inactive
NBPF11	2	-1.65	49.1	inactive
NBPF11	3	-0.135	79.2	inactive
DPCD	1	-1.17	58.6	inactive
DPCD	2	0.201	85.9	inactive
DPCD	3	0.256	87	inactive
ZZZ3	1	-1.74	47.3	inactive
ZZZ3	2	1.35	109	inactive
ZZZ3	3	0.386	89.6	inactive
GLI2	1	1.96	121	inactive
GLI2	2	-1.37	54.7	inactive
GLI2	3	-0.46	72.7	inactive
KLHDC4	1	0.0648	83.2	inactive
KLHDC4	2	0.452	90.9	inactive
KLHDC4	3	-2.03	41.5	inactive
METTL21C	1	-0.402	73.9	inactive
METTL21C	2	-1.39	54.3	inactive
METTL21C	3	3.68	155	active
ACY1	1	-1.04	61.1	inactive
ACY1	2	1.16	105	inactive
ACY1	3	-0.453	72.9	inactive
NDUFA10	1	-0.101	79.9	inactive
NDUFA10	2	-0.456	72.8	inactive
NDUFA10	3	-1.23	57.4	inactive
VCF2	1	-0.583	70.3	inactive
VCF2	2	-0.3	75.9	inactive
VCF2	3	0.0447	82.8	inactive
KCTD6	1	1.02	102	inactive
KCTD6	2	1.86	119	inactive
KCTD6	3	-0.81	65.8	inactive
TMF1	1	-0.429	73.4	inactive
TMF1	2	0.0698	83.3	inactive
TMF1	3	1.14	105	inactive
CCRL2	1	0.6	93.8	inactive
CCRL2	2	-1.59	50.3	inactive
CCRL2	3	0.0909	83.7	inactive
CCRL2	4	0.557	93	inactive
CCRL2	5	0.734	96.5	inactive
CCRL2	6	0.788	97.6	inactive
